Where two headings read alike, the source gives them in different places. Some entries share one result that the patent states for a list of compounds.
What was measured:
[1] = tested on: L1 Haemonchus contortus larvae; test: Screening of activity against Haemonchus contortus (larval development L1 to L3, dose response); assay type: cell-based; conditions: H. contortus L1 larvae, analysis at 4 days, read-out: EC50 (development of the larvae from L1 to L3)
[2] = tested on: microfilariae of Dirofilaria immitis; test: Screening of activity against microfilaria of Dirofilaria immitis (motility, dose response); assay type: cell-based; conditions: D. immitis microfilariae, three days at 37° C.
[3] = lower bound in nM, upper bound in μM

SMILES	EC50 [1] [nM]	EC50 [2] [nM]	EC50 [1, 3] [nM]	further results
CC(C)c1c(C(=O)N[C@H]2CCOc3ccccc32)sc2c(-c3c(F)cccc3F)ccnc12 [Compound 209]	< 100	< 10	–	–
CC(C)c1c(C(=O)N[C@H]2CCOc3ccccc32)sc2c(-c3cc(F)cc(F)c3)c(F)cnc12 [Compound 204]	< 100	< 10	–	–
CC(C)c1c(C(=O)NC2CCOc3ccccc32)sc2c(C3CCC(C(F)(F)F)CC3)ccnc12 (centres unmarked) [Compound 243]	–	< 10	100 to 10000	–
CC(C)c1c(C(=O)N[C@H]2CCOc3ccccc32)sc2c(-c3cc(F)cc(F)c3)ccnc12 [Compound 120]	< 100	< 10	–	–
C=C(C)c1c(C(=O)N[C@H]2CCOc3ccccc32)sc2c(-c3cc(F)cc(F)c3)ncnc12 [Compound 115]	–	–	100 to 10000	–
CC(C)(F)c1c(C(=O)N[C@H]2CCOc3ccc(F)cc32)sc2c(-c3cc(Cl)cc(Cl)c3)ccnc12 [Compound 259]	< 100	< 10	–	–
CC(C)c1c(C(=O)N[C@H]2CCOc3ccccc32)sc2c(-c3cc(F)cc(F)c3)nccc12 [Compound 124]	–	–	100 to 10000	–
CC(C)c1c(C(=O)N[C@H]2CCOc3ccccc32)sc2c(C3=CCOCC3)ccnc12 [Compound 241]	–	–	100 to 10000	–
CC(C)c1c(C(=O)N[C@H]2CCOc3ccccc32)sc2c(C3=CCSCC3)ccnc12 [Compound 249]	–	–	100 to 10000	–
CC(C)c1c(C(=O)N[C@H]2CCOc3ccc(F)cc32)sc2c(-c3cc(Cl)cc(Cl)c3)ccnc12 [Compound 211]	< 100	< 10	–	–
CC(C)(C)c1c(C(=O)N[C@H]2CCOc3ccc(F)cc32)sc2c(-c3cc(Cl)cc(Cl)c3)c(F)cnc12 [Compound 338]	–	–	100 to 10000	–
CN(C)c1c(C(=O)N[C@H]2CCOc3ccccc32)sc2c(N3CCCCC3)ccnc12 [Compound 228]	–	–	–	EC50 [2, 3]: 100 to 10000 nM
CC(C)c1c(C(=O)N[C@H]2CCOc3ccccc32)sc2c(N3CCC(F)(F)CC3)ccnc12 [Compound 246]	–	–	100 to 10000	–
CC(C)(C)c1c(C(=O)N[C@H]2CCOc3ccc(F)cc32)sc2c(-c3cc(Cl)cc(Cl)c3)c(F)cnc12 [Compound 336]	< 100	–	–	–
CC(C)c1c(C(=O)N[C@H]2CCOc3ccccc32)sc2c(C(C)(C)C)ccnc12 [Compound 301]	–	–	–	EC50 [2, 3]: 100 to 10000 nM
CC(C)c1c(C(=O)N[C@H]2CCOc3ccccc32)sc2c(-c3cc(F)cc(F)c3)cnnc12 [Compound 239]	–	–	100 to 10000	–
CC(C)(O)c1c(C(=O)N[C@H]2CCOc3ccc(F)cc32)sc2c(-c3cc(Cl)cc(Cl)c3)ccnc12 [Compound 259-5]	< 100	–	–	–
CC(C)c1c(C(=O)N[C@H]2CCOc3ccccc32)sc2c(-c3cccnc3)ccnc12 [Compound 213]	–	–	100 to 10000	–
O=C(N[C@H]1CCOc2ccccc21)c1sc2c(-c3cc(F)cc(F)c3)nccc2c1N1CCOCC1 [Compound 126]	–	–	100 to 10000	–
CC(C)(F)c1c(C(=O)N[C@H]2CCOc3ccccc32)sc2c(-c3cc(Cl)cc(Cl)c3)ccnc12 [Compound 212]	< 100	< 10	–	–
C=C(C)c1c(C(=O)N[C@H]2CCOc3ccccc32)sc2c(-c3cc(F)cc(F)c3)nccc12 [Compound 123]	–	–	100 to 10000	–
C=C(C)c1c(C(=O)N[C@H]2CCOc3ccccc32)sc2c(-c3cc(F)cc(F)c3)cccc12 [Compound 092]	–	–	100 to 10000	–
O=C(N[C@H]1CCOc2ccccc21)c1sc2c(-c3cc(F)cc(F)c3)cncc2c1N1CCOCC1 [Compound 130]	–	–	100 to 10000	–
CC(C)c1c(C(=O)N[C@H]2CCOc3ccccc32)sc2c(-c3cc(F)cc(F)c3)cncc12 [Compound 128]	–	–	100 to 10000	–
O=C(N[C@H]1CCOc2ccccc21)c1sc2c(-c3cc(F)cc(F)c3)ccnc2c1C(F)(F)F [Compound 236]	–	< 10	100 to 10000	–
C=C(C)c1c(C(=O)N[C@H]2CCOc3ccccc32)sc2c(-c3cc(Cl)cc(Cl)c3)ccnc12 [Compound 285]	< 100	–	–	–

SMILES	EC50 [1] [nM]	EC50 [2] [nM]	EC50 [1, 3] [nM]	further results
CC(C)c1c(C(=O)N[C@H]2CCOc3ccccc32)sc2c(C3CCCC3)ccnc12 [Compound 222]	–	–	100 to 10000	–
CC(C)c1c(C(=O)N[C@H]2CCOc3ccccc32)sc2c(-c3cc(Cl)cc(Cl)c3)c(F)cnc12 [Compound 309]	< 100	< 10	–	–
CC(C)c1c(C(=O)N[C@H]2CCOc3ccccc32)sc2c(-c3c(F)ccc(F)c3F)ccnc12 [Compound 203]	< 100	–	–	–
CC(C)c1c(C(=O)N[C@H]2CCOc3ccccc32)sc2c(N3CCCCC3)ccnc12 [Compound 229]	–	–	100 to 10000	–
CC(C)c1c(C(=O)N[C@H]2CCOc3ccccc32)sc2c(-c3cc(F)cc(F)c3)cccc12 [Compound 090]	–	–	100 to 10000	–
CC(C)(O)c1c(C(=O)N[C@H]2CCOc3ccccc32)sc2c(-c3cc(F)cc(F)c3)ccnc12 [Compound 199]	< 100	–	–	–
O=C(N[C@H]1CCOc2ccccc21)c1sc2c(-c3cc(F)cc(F)c3)cccc2c1N1CCOCC1 [Compound 101]	–	–	100 to 10000	–
CN(C)c1c(C(=O)N[C@H]2CCOc3ccccc32)sc2c(-c3cc(F)cc(F)c3)cncc12 [Compound 129]	–	–	100 to 10000	–
CC(C)(C)c1c(C(=O)N[C@H]2CCOc3ccccc32)sc2c(-c3cc(F)cc(F)c3)ccnc12 [Compound 210]	< 100	< 10	–	–
C=C(C)c1c(C(=O)N[C@H]2CCOc3ccc(F)cc32)sc2c(-c3cc(F)cc(F)c3)ccnc12 [Compound 256]	–	< 10	100 to 10000	–
CC(C)(C)c1c(C(=O)N[C@H]2CCOc3ccc(F)cc32)sc2c(-c3cc(F)cc(F)c3)c(F)cnc12 [Compound 337]	–	< 10	100 to 10000	–
CC(C)c1c(C(=O)N[C@H]2CCOc3ccc(F)cc32)sc2c(-c3cc(Cl)cc(Cl)c3)ccnc12 [Compound 258]	< 100	–	–	–
CC(C)(F)c1c(C(=O)N[C@H]2CCOc3ccccc32)sc2c(-c3cc(F)cc(F)c3)ccnc12 [Compound 311]	–	< 10	–	–
CC(C)c1c(C(=O)N[C@H]2CCOc3ccccc32)sc2c(C3=CCC(C(F)(F)F)CC3)ccnc12 (some centres unmarked) [Compound 242]	–	–	100 to 10000	–
CC(C)c1c(C(=O)N[C@H]2CCOc3ccccc32)sc2c(-c3cccc(F)c3)ccnc12 [Compound 207]	–	< 10	100 to 10000	–
C=C(C)c1c(C(=O)N[C@H]2CCOc3ccccc32)sc2c(-c3cc(F)cc(F)c3)cncc12 [Compound 127]	–	–	100 to 10000	–
CN(C)c1c(C(=O)N[C@H]2CCOc3ccccc32)sc2c(-c3cc(F)cc(F)c3)ccnc12 [Compound 121]	–	–	100 to 10000	–
CC(C)c1c(C(=O)N[C@H]2CCOc3ccccc32)sc2c(C3CCCCC3F)ccnc12 (some centres unmarked) [Compound 255-0]	–	–	100 to 10000	–
CC(C)c1c(C(=O)N[C@H]2CCOc3ccccc32)sc2c(-c3cccc(Cl)c3Cl)ccnc12 [Compound 206]	< 100	< 10	–	–
CC1CC(C)CN(c2ccnc3c(C(C)C)c(C(=O)NC4CCOc5ccccc54)sc23)C1 (centres unmarked) [Compound 220]	–	–	100 to 10000	–
CC(C)(F)c1c(C(=O)N[C@H]2CCOc3ccccc32)sc2c(-c3ccnc(Cl)c3)ccnc12 [Compound 268]	–	–	100 to 10000	–
CC(C)c1c(C(=O)N[C@H]2CCOc3ccccc32)sc2c(C3=CCC(F)(F)CC3)ccnc12 [Compound 245]	–	–	100 to 10000	–
CC(C)(F)c1c(C(=O)N[C@H]2CCOc3ccccc32)sc2c(-c3cc(Cl)cc(Cl)c3)c(F)cnc12 [Compound 263]	< 100	< 10	–	–
CC(C)c1c(C(=O)N[C@H]2CCOc3ccccc32)sc2c(C3CCOCC3)ccnc12 [Compound 240]	–	–	100 to 10000	–
CC(C)c1c(C(=O)N[C@H]2CCOc3ccc(F)cc32)sc2c(-c3cc(F)cc(F)c3)c(F)cnc12 [Compound 260]	–	–	100 to 10000	–
CC(C)(O)c1c(C(=O)N[C@H]2CCOc3ccccc32)sc2c(-c3cc(Cl)cc(Cl)c3)ccnc12 [Compound 212-0]	< 100	< 10	–	–
